Positions count from the first letter of the chain named. Construct, isoform or probe ends are uncertain for at least one entry. Where a protein sequence is shown, tags need not be part of it.
What was measured:
Experiment in all cases: intrinsic tryptophan fluorescence titration
Details in all cases: saturating ATP; recombinant protein; protein details: His (Ni-NTA, pET-14b); folded or branched DNA
[1] = biological target: T1, ADAAD D591H D811H (Bos taurus (bovine)) (UniProt Q9TTA5)
T1 sequence (looked up, limits assumed): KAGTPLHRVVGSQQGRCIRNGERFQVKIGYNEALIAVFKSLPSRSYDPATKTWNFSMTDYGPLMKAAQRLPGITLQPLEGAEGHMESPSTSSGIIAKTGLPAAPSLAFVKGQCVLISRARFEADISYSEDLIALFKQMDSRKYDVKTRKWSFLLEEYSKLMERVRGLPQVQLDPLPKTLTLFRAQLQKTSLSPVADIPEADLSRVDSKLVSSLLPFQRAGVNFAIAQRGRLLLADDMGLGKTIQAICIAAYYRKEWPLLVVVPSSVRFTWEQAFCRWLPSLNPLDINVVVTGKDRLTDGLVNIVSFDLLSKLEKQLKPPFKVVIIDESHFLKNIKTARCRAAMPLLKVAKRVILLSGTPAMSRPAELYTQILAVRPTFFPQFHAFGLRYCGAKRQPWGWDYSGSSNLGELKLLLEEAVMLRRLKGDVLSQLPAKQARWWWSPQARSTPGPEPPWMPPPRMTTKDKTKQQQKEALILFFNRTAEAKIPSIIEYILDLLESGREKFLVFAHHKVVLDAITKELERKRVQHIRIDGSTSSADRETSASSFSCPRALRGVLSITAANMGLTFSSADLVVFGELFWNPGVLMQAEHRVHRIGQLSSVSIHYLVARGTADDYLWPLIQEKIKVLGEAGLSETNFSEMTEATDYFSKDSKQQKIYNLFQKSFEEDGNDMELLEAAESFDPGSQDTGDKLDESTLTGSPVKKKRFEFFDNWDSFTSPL

[2] = biological target: T2, ADAAD F507W F727W (Bos taurus (bovine)) (UniProt Q9TTA5)
T2 sequence (looked up, limits assumed): T1 sequence (looked up, limits assumed) with F507W, H591D

[3] = biological target: T3, ADAAD H329D/D591H H549D,D811H (Bos taurus (bovine)) (UniProt Q9TTA5)
T3 sequence (looked up, limits assumed): T1 sequence (looked up, limits assumed) with H329D

[4] = biological target: T4, ADAAD R595H R815H (Bos taurus (bovine)) (UniProt Q9TTA5)
T4 sequence (looked up, limits assumed): T1 sequence (looked up, limits assumed) with H591D, R595H

Sequence: GCGCAATTGCGCTCGACGATTTTTTAGCGCAATTGCGC [slDNA (stem-loop DNA)]
- Kd [1]: 6.9 nM
- Kd [2]: 14 nM
- Kd [3]: 9.9 nM
- Kd [4]: 10.1 nM

Source: PMC6019379, “RecA-like domain 2 of DNA-dependent ATPase A domain, a SWI2/SNF2 protein, mediates conformational integrity and ATP hydrolysis” (Bioscience Reports, 2018)
